Among the data in paper doi:10.1101/2025.08.23.671895 are binding values, retold here.

Amino acid sequences for entries named in this document (tags omitted). Residues count along the entry.
UniProt P02943, 26-446: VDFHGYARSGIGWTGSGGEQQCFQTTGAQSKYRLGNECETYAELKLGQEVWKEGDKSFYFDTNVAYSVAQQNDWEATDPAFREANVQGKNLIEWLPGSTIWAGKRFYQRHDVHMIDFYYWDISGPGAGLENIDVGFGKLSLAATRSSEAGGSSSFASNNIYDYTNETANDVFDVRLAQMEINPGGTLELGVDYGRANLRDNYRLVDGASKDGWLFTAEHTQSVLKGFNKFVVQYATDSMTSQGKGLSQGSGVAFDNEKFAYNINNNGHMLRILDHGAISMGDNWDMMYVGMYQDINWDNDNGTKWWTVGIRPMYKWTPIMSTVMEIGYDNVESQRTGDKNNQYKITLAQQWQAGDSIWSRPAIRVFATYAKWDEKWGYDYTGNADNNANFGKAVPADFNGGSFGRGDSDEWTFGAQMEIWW

One experiment concerns the target maltoporin (UniProt P02943). Description: negative-staining EM.
A further experiment concerns the target aquaporin-12 (UniProt Q8IXF9). In words: SEC + other: negative-staining EM.

Results are given in words; binding and its absence hold for the method and conditions named. Some entries that bind do so weakly or less than the wild type.

As to maltoporin (from UniProt P02943 26-446), the binding entry with maltoporin is given as “binds”.

B1: aquaporin-12 (protein, UniProt Q8IXF9 1-295)
chain: MAGLNVSLSFFFATFALCEAARRASKALLPVGAYEVFAREAMRTLVELGPWAGDFGPDLLLTLLFLLFLAHGVTLDGASANPTVSLQEFLMAEQSLPGTLLKLAAQGLGMQAACTLMRLCWAWELSDLHLLQSLMAQSCSSALRTSVPHGALVEAACAFCFHLTLLHLRHSPPAYSGPAVALLVTVTAYTAGPFTSAFFNPALAASVTFACSGHTLLEYVQVYWLGPLTGMVLAVLLHQGRLPHLFQRNLFYGQKNKYRAPRGKPAPASGDTQTPAKGSSVREPGRSGVEGPHSS
B1: in the experiment with aquaporin-12, the binding entry is given as “binds”.
